In patent US20220041582A1, “ISOXAZOLINE COMPOUNDS FOR CONTROLLING INVERTEBRATE PESTS” (FMC Corporation, priority 2018, published 2022):
Some of these results come from one statement about several compounds together.

Key:
Type in all cases: in vivo
[1] = system: Western Flower Thrips (Frankliniellla occidentalis (Pergande)); test: Test H: control of Western Flower Thrips through contact and/or systemic means; conditions: 6 days, 30% or less plant damage and/or 100% mortality
Protocol: Formulation and Spray Methodology for Tests A-H
Test compounds were formulated using a solution containing 10% acetone, 90% water and 300 ppm Activator 90® non-ionic surfactant (Loveland Products, Loveland, Colo., USA). The formulated compounds were applied in 1 mL of liquid through an atomizer nozzle positioned 1.27 cm (0.5 inches) above the top of each test unit. Test compounds were sprayed at the rates indicated, and each test was replicated three times.
For evaluating control of the Western Flower Thrips (Frankliniellla occidentalis (Pergande)) through contact and/or systemic means, the test unit consisted of a small open container with a 8-9-day-old Soleil bean plant inside.
Test compounds were formulated and sprayed at 250, 50, 10 and 2 ppm. After spraying, the test units were allowed to dry for 1 hour, and then ˜60 thrips (adults and nymphs) were added to each unit. A black, screened cap was placed on top, and the test units were held for 6 days at 25° C. and 45-55% relative humidity. Each test unit was then visually assessed for plant damage and insect mortality.

[2] = system: diamondback moth (Plutella xylostella (L.)); test: Test A: control of diamondback moth on mustard plant, foliar spray; conditions: 6 days, 40% or less feeding damage and/or 100% mortality
[3] = system: fall armyworm (Spodoptera frugiperda (J. E. Smith)); test: Test B: control of fall armyworm on corn plant, foliar spray; conditions: 6 days, 40% or less feeding damage and/or 100% mortality

Row | SMILES | control efficacy: plant damage (and/or 100% mortality) ([1]; 0.4 ppm spray) [%] | control efficacy: plant damage (and/or 100% mortality) ([1]; 2 ppm spray) [%] | control efficacy: plant damage (and/or 100% mortality) ([1]; 10 ppm spray) [%] | control efficacy: feeding damage (and/or 100% mortality) ([2]; 0.4 ppm spray) [%] | control efficacy: feeding damage (and/or 100% mortality) ([2]; 2 ppm spray) [%] | control efficacy: feeding damage (and/or 100% mortality) ([2]; 10 ppm spray) [%] | control efficacy: feeding damage (and/or 100% mortality) ([3]; 0.4 ppm spray) [%] | control efficacy: feeding damage (and/or 100% mortality) ([3]; 2 ppm spray) [%] | control efficacy: feeding damage (and/or 100% mortality) ([3]; 10 ppm spray) [%]
1 | O=C(NCC1CC1)c1ccc(C2=NOC(c3cccc(C(F)(F)F)c3)(C(F)(F)F)C2)c2ccncc12 (racemic) [Compound 17, N-(cyclopropylmethyl)-5-[4,5-dihydro-5-(trifluoromethyl)-5-[3-(trifluoromethyl)phenyl]-3-isoxazolyl]-8-isoquinolinecarboxamide] | ≤ 30 | ≤ 30 | ≤ 30 | ≤ 40 | ≤ 40 | ≤ 40 | ≤ 40 | ≤ 40 | ≤ 40
2 | O=C(NC1CC1)c1ccc(C2=NOC(c3cccc(C(F)(F)F)c3)(C(F)(F)F)C2)c2ccncc12 (stereo not shown) [Compound 16, N-cyclopropyl-5-[4,5-dihydro-5-(trifluoromethyl)-5-[3-(trifluoromethyl)phenyl]-3-isoxazolyl]-8-isoquinolinecarboxamide] | ≤ 30 | ≤ 30 | ≤ 30 | ≤ 40 | ≤ 40 | ≤ 40 | ≤ 40 | ≤ 40 | ≤ 40
3 | O=C(NCc1ncccn1)c1ccc(C2=NOC(c3cccc(C(F)(F)F)c3)(C(F)(F)F)C2)c2ccncc12 (stereo not shown) [Compound 18] | – | ≤ 30 | ≤ 30 | ≤ 40 | ≤ 40 | ≤ 40 | – | ≤ 40 | ≤ 40
4 | CS(=O)(=O)CCNC(=O)c1ccc(C2=NOC(c3cccc(C(F)(F)F)c3)(C(F)(F)F)C2)c2ccncc12 (stereo not shown) [Compound 19] | – | ≤ 30 | ≤ 30 | – | ≤ 40 | ≤ 40 | – | – | ≤ 40
5 | CC(C[S+](C)[O-])NC(=O)c1ccc(C2=NOC(c3cccc(C(F)(F)F)c3)(C(F)(F)F)C2)c2ccncc12 (stereo not shown) [Compound 22] | – | – | ≤ 30 | – | – | ≤ 40 | – | – | –
6 | C[C@@H](NC(=O)c1ccc(C2=NOC(c3cccc(C(F)(F)F)c3)(C(F)(F)F)C2)c2ccncc12)C(N)=O (stereo partly shown) [Compound 25] | – | – | ≤ 30 | – | – | ≤ 40 | – | – | –
7 | CSCCNC(=O)c1ccc(C2=NOC(c3cccc(C(F)(F)F)c3)(C(F)(F)F)C2)c2ccncc12 (stereo not shown) [Compound 29] | – | ≤ 30 | ≤ 30 | – | ≤ 40 | ≤ 40 | – | – | ≤ 40
8 | C[S+]([O-])CCNC(=O)c1ccc(C2=NOC(c3cccc(C(F)(F)F)c3)(C(F)(F)F)C2)c2ccncc12 (stereo not shown) [Compound 30] | – | ≤ 30 | ≤ 30 | ≤ 40 | ≤ 40 | ≤ 40 | – | – | –
9 | O=C(NC1CC1)c1ccc(C2=NOC(c3ccc(F)c(C(F)(F)F)c3)(C(F)(F)F)C2)c2ccncc12 (stereo not shown) [Compound 55, N-cyclopropyl-5-[5-[4-fluoro-3-(trifluoromethyl)phenyl]-4,5-dihydro-5-(trifluoromethyl)-3-isoxazolyl]-8-isoquinolinecarboxamide] | ≤ 30 | ≤ 30 | ≤ 30 | ≤ 40 | ≤ 40 | ≤ 40 | – | ≤ 40 | ≤ 40
10 | O=C(NCC1CC1)c1ccc(C2=NOC(c3ccc(F)c(C(F)(F)F)c3)(C(F)(F)F)C2)c2ccncc12 (stereo not shown) [Compound 58, N-(cyclopropylmethyl)-5-[5-[4-fluoro-3-(trifluoromethyl)phenyl]-4,5-dihydro-5-(trifluoromethyl)-3-isoxazolyl]-8-isoquinolinecarboxamide] | ≤ 30 | ≤ 30 | – | ≤ 40 | ≤ 40 | – | ≤ 40 | ≤ 40 | –
11 | C#CCNC(=O)c1ccc(C2=NOC(c3ccc(F)c(C(F)(F)F)c3)(C(F)(F)F)C2)c2ccncc12 (stereo not shown) [Compound 74, 5-[5-[4-fluoro-3-(trifluoromethyl)phenyl]-4,5-dihydro-5-(trifluoromethyl)-3-isoxazolyl]-N-2-propyn-1-yl-8-isoquinolinecarboxamide] | ≤ 30 | ≤ 30 | ≤ 30 | ≤ 40 | ≤ 40 | ≤ 40 | ≤ 40 | ≤ 40 | ≤ 40
